Results are given in words; binding and its absence hold for the method and conditions named. In cells and extracts the contact can be indirect. Some entries that bind do so weakly or less than the wild type. For some assays here: Sequences can lack the tags named with a protein. Values belong to the binder of their own block, whether it stands above or below them.
Experiments:
[1] = molecular target: Myc-tagged human MCL-1 wild-type (human), Q07820; test: co-IP; Myc-MCL-1 (wt, 2A or 6A) co-transfected with Noxa in 293T cells for 24 h; CHAPS lysis buffer; which protein was precipitated is not told; settings: remark: other sources report otherwise
[2] = molecular target: Myc-tagged human MCL-1 2A mutant (Ser64 and Thr70 substituted to Ala) (human) (UniProt Q07820); test: co-IP; HA-Noxa, Myc-MCL-1 (wt or 2A) and/or Flag-CDK2 transfected into 293T cells for 24 h; total extracts immunoprecipitated with anti-Myc antibodies; CHAPS lysis buffer
[3] = molecular target: Myc-tagged human MCL-1 2A mutant (Ser64 and Thr70 substituted to Ala) (human) (UniProt Q07820); test: co-IP; Myc-MCL-1 (wt, 2A or 6A) co-transfected with Noxa in 293T cells for 24 h; CHAPS lysis buffer; which protein was precipitated is not told
[4] = molecular target: Myc-tagged human MCL-1 wild-type (human), Q07820; test: co-IP; HA-Noxa, Myc-MCL-1 (wt or 2A) and/or Flag-CDK2 transfected into 293T cells for 24 h; total extracts immunoprecipitated with anti-Myc antibodies; CHAPS lysis buffer; settings: remark: other sources report otherwise
[5] = molecular target: MCL-1, endogenous in HeLa cells (human (endogenous in HeLa)), Q07820; test: co-IP; endogenous proteins; HeLa cells treated with cisplatin for 4 h; total extracts immunoprecipitated with anti-CDK2 or anti-MCL-1 antibodies; settings: remark: other sources report otherwise

Sequences of proteins named here, by UniProt entry; tags and fusion partners are left off. A change or cut given only in a name is not applied to a line headed by its entry. A line that says so, or that is headed by a name, gives the form on record, which may keep a tag or linker.
UniProt Q07820: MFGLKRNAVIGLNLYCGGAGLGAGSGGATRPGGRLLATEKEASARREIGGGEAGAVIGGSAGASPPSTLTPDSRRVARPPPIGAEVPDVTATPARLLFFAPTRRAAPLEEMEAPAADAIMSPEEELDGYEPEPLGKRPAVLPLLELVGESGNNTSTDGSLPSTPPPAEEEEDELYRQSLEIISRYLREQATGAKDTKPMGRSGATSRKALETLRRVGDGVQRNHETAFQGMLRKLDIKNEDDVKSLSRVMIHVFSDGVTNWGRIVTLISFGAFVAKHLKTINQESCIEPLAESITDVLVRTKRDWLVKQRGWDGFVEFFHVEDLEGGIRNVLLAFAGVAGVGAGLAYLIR
Myc-tagged human MCL-1 2A mutant (Ser64 and Thr70 substituted to Ala) (Q07820, form named): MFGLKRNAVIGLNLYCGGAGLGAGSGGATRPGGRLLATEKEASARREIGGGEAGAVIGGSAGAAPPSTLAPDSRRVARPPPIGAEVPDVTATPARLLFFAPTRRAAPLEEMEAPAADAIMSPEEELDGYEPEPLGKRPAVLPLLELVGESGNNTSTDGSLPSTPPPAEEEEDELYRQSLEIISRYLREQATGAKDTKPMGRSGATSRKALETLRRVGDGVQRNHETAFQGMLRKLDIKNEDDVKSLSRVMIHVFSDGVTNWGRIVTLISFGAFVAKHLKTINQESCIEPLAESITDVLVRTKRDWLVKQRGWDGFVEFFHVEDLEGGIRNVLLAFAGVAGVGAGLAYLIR

binding [1]: binds
B1: human Noxa co-transfected with MCL-1 in 293T cells (Figure 5A), Q13794 1-54 (protein)
chain: MPGKKARKNAQPSPARAPAELEVECATQLRRFGDKLNFRQKLLNLISKLFCSGT

binding [3]: binds
B3: human Noxa co-transfected with MCL-1 in 293T cells (Figure 5A) (protein, UniProt Q13794 1-54)
chain: MPGKKARKNAQPSPARAPAELEVECATQLRRFGDKLNFRQKLLNLISKLFCSGT

The remaining lines, values behind:

B2: HA-tagged Noxa (protein, UniProt Q13794 1-54)
chain: MPGKKARKNAQPSPARAPAELEVECATQLRRFGDKLNFRQKLLNLISKLFCSGT
binding [2]: binds

B4: HA-tagged Noxa, Q13794 1-54 (protein)
chain: MPGKKARKNAQPSPARAPAELEVECATQLRRFGDKLNFRQKLLNLISKLFCSGT
binding [4]: binds

B5: Noxa, endogenous in HeLa cells, Q13794 1-54 (protein)
chain: MPGKKARKNAQPSPARAPAELEVECATQLRRFGDKLNFRQKLLNLISKLFCSGT
binding [5]: binds

Reference: paper PMC5095005
